Results as given in article PMC4977153.
No constants are given. Whether binding was seen depends on the method and setting. In cells and extracts the contact can be indirect. A yes stands for co-enrichment or nearness to the bait. Other partners may have been found.

Chains of the proteins cited; added tags and fusions are not shown.
UniProt O88286: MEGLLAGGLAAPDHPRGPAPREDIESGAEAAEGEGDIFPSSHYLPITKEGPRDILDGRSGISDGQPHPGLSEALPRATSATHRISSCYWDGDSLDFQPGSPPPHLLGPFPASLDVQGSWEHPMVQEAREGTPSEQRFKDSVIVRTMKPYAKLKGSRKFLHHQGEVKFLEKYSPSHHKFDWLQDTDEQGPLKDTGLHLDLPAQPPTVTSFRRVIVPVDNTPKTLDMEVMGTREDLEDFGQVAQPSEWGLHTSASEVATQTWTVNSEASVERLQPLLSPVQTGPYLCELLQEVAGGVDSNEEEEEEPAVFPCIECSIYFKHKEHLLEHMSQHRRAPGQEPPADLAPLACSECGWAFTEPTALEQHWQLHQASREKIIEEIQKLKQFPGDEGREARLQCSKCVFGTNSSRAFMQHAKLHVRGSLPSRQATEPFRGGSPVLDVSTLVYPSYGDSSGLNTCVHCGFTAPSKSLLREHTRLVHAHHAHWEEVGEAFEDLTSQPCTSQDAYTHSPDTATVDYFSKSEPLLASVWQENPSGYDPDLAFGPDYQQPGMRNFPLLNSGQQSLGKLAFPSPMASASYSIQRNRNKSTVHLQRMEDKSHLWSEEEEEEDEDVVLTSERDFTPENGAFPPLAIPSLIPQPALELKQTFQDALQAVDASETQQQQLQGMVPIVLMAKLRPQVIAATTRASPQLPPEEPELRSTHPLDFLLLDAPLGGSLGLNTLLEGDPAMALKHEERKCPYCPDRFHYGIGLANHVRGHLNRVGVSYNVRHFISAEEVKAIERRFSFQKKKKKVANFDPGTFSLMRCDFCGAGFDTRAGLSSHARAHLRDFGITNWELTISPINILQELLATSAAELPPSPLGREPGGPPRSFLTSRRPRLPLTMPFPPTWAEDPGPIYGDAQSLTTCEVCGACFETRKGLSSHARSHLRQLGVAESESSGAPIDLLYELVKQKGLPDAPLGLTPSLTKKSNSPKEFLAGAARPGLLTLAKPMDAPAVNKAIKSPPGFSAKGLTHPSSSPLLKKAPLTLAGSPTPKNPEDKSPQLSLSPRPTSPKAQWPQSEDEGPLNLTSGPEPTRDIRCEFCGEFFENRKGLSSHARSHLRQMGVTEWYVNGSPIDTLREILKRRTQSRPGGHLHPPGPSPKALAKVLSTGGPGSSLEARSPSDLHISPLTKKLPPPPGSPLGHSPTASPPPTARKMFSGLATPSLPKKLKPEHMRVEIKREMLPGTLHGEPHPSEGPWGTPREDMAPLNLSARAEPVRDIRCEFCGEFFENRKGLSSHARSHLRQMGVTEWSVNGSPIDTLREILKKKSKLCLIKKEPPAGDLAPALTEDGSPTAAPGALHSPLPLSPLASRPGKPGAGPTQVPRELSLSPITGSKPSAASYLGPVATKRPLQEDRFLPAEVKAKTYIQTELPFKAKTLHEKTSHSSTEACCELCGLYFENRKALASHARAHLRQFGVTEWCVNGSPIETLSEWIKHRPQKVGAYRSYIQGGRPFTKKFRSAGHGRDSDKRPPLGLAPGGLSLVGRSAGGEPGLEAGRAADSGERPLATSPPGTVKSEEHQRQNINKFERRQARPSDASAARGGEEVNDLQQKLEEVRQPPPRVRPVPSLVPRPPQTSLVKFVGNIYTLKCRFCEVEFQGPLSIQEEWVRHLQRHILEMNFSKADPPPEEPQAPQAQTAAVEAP
UniProt Q9Z148: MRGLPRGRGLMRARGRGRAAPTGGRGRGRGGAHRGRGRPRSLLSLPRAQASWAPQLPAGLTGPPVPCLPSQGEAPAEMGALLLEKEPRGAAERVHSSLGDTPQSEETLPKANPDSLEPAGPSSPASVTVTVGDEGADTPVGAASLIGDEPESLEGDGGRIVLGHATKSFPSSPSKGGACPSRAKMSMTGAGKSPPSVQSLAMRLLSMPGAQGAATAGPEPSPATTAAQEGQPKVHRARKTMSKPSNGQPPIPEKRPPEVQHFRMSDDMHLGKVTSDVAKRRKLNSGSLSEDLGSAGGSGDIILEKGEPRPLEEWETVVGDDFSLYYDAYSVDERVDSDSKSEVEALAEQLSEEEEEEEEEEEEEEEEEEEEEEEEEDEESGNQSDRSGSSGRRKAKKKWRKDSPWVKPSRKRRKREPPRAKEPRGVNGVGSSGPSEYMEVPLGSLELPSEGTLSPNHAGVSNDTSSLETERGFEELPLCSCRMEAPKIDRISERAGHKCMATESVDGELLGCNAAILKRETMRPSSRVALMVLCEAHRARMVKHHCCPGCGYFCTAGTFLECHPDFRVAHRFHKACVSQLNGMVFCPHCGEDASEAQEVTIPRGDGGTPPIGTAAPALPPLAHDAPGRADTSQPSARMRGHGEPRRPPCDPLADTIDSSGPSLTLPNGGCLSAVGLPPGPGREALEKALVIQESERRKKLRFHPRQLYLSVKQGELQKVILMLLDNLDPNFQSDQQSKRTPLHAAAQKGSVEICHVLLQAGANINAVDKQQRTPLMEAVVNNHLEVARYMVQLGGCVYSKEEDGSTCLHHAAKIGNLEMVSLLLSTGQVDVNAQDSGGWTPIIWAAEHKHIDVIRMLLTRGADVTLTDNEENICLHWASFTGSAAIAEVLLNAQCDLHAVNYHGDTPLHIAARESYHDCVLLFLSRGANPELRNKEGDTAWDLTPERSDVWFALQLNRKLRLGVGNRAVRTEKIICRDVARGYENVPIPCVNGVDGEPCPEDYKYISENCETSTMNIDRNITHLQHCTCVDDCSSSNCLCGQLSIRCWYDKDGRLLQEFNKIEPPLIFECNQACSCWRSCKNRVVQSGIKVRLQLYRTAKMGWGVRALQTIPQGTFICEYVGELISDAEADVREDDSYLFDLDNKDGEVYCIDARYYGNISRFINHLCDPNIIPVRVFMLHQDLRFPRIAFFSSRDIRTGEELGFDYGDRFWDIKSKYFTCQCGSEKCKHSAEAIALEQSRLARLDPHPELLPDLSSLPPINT

Molecular target: Widely interspaced zinc finger motifs, Wiz (mouse (endogenous in E13.5 brain and adult cerebellum)) (UniProt O88286)
Assay: affinity purification with mass spectrometry; 500 ug nuclear lysate of pooled E13.5 mouse brain (n = 1 pooled sample) or adult cerebellum (n = 2) incubated with 2 ug anti-Wiz antibody (NBP180586) or anti-IgG control overnight at 4 degrees Celsius; Protein G Dynabeads; eluted proteins analysed by mass spectrometry

EHMT2 (from UniProt Q9Z148 1-1263)
binding: binds
